Measured values reported in PubChem BioAssay AID540276 (National Center for Advancing Translational Sciences (NCATS), 2011).
The campaign covered roughly 300,000 compounds. About 5,400 (1.8%) were called active. Inconclusive means that the source gave no clear call. Such entries were picked first, then a sample of the others. Calls come from the whole dose curve; tested in HEK293 cells. Potencies beside an inconclusive call are fits to weak or partial responses and may not hold up.

assay: qHTS for inhibitors of binding or entry into cells for Marburg Virus; settings: Marburg virus pseudotyped entry inhibition, cell reporter; activity change, negative = inhibition: at 37.8 µM (top of the series) unless noted
% is set by controls: 0 for no effect and ±100 for the full control effect; potency is the fitted concentration of half-maximal effect.

Row | SMILES | Potency | activity change, negative = inhibition
1 | Cc1cc(C)nc(N(C#N)CC(=O)c2ccccc2)n1 | inconclusive: 29.1 µM [inhibitor, partial curve, poor fit] | –
2 | CCC1CCCCN1C1Sc2ccc(C(=O)OC)cc2NC1=O (configuration not stated) | inconclusive: 6.51 µM [inhibitor, single point] | –
3 | C#CCCCO/N=C1/C[C@@H](O)[C@@H](O)[C@@H]2[C@H]3C(=O)N(c4ccc(F)cc4F)C(=O)[C@@H]3CC[C@H]12 | – | inactive: -6.13% [at 14.2 µM]
4 | CCN(CC(=O)Nc1ccc2c(c1)OCCO2)CC(=O)Nc1ccc(C)c([N+](=O)[O-])c1 | inconclusive: 7.94 µM [inhibitor, partial curve] | –
5 | c1ccc(CN2CCC(Nc3nc(-c4ccccc4)nc4ccccc34)CC2)cc1 | inconclusive: 17.8 µM [inhibitor, partial curve, poor fit] | –
6 | CC1CCCC(C)N1C(=O)COC(=O)c1n[nH]c(=O)c2ccccc12 (configuration not stated) | – | inactive: -19.3%
7 | Cn1c(SCCN2CCCC2)nnc1C1CCN(S(=O)(=O)c2cccc(F)c2)CC1 | inconclusive: 35.5 µM [inhibitor, single point] | –
8 | CCSc1nnc(-c2ccc(S(=O)(=O)N3CCCC3)cc2)n1C | – | inactive: 18.1%
9 | CCN1C(=O)CC(N2CCN(c3ccc(C(=O)c4ccncc4)cc3)CC2)C1=O (configuration not stated) | – | inactive: 8.26%
10 | O=C(CCSc1ccccc1)Nc1ccccc1Br | – | inactive: -1.38% [at 46.1 µM]
11 | CN(C)S(=O)(=O)c1ccc(C(=O)Nc2ccccn2)cc1 | – | inactive: -9.03%
12 | O=C(c1ccc(Cl)cc1Cl)N1CCOCC1 | – | inactive: 1.78% [at 46.1 µM]
13 | O=C(Nc1nccs1)C1CC(=O)N(c2ccccc2)C1 (configuration not stated) | – | inactive: -2% [at 46.1 µM]
14 | CC(C)Sc1nc(N2CCOCC2)c2c(c1C#N)CC(C)(C)SC2 | inconclusive: 10 µM [inhibitor, partial curve, poor fit] | –
15 | Cc1cccc(Nc2ncc(NC(=O)c3cccc(F)c3)c(Nc3cccc(C)c3)n2)c1 | inconclusive: 35.5 µM [inhibitor, single point] | –
16 | COC(=O)c1c(NC(=O)/C=C/C(=O)O)sc(Cc2ccccc2)c1C | active: 11.2 µM | –
17 | Cn1c(-[n+]2c(-c3ccccc3)cc(-c3ccccc3)cc2-c2ccccc2)nc2cc([N+](=O)[O-])ccc21 | inconclusive: 20 µM [activator, single point] | –
18 | CCCCN1C2=C(C(=O)CC(C)(C)C2)C(c2ccccc2)C2=C1c1ccccc1C2=O (configuration not stated) | inconclusive: 11.2 µM [inhibitor, partial curve, poor fit] | –
19 | O=C(Nc1ccc(-c2ccccc2)cc1)c1ccco1 | inconclusive: 11.2 µM [activator, partial curve, poor fit] | –
20 | O=C(NCc1cccnc1)c1ccc(NC(=O)c2ccc(Br)cc2)cc1 | inconclusive: 20 µM [inhibitor, single point] | –
21 | COCCn1c(SCc2cccc([N+](=O)[O-])c2)nc2ccccc2c1=O | inconclusive: 10 µM [inhibitor, partial curve] | –
22 | Cn1ccc2c(-c3ccc(C(N)=O)cc3)cc3c(c21)C1CCC3C1 (configuration not stated) | inconclusive: 1.58 µM [inhibitor, full curve, poor fit] | –
23 | CCOc1ccccc1NC(=O)c1ccc2nc[nH]c2c1 | – | inactive: -9.13% [at 46.1 µM]
24 | COc1ccc(NC(C)C(=O)Nc2cc(C(F)(F)F)ccc2N2CCOCC2)c(OC)c1 (configuration not stated) | inconclusive: 6.51 µM [inhibitor, partial curve] | –

Row | SMILES | Potency | activity change, negative = inhibition
25 | CCCC(CCC)=NNc1ccc(S(=O)(=O)Nc2ccccc2OC)cc1[N+](=O)[O-] | inconclusive: 2.24 µM [inhibitor, full curve, poor fit] | –
26 | Cc1oc(-c2cccc(Br)c2)[n+]([O-])c1C | inconclusive: 7.08 µM [activator, partial curve, poor fit] | –
27 | COc1ccc(N/N=C(/C)c2cnnc(-c3ccccc3)n2)cc1 | – | inactive: 17%
28 | COc1cccc(N2CCN(S(=O)(=O)c3cccc4nsnc34)CC2)c1 | inconclusive: 35.5 µM [inhibitor, single point] | –
29 | O=C(CCn1c(=O)c2sccc2n(CC(=O)OCc2ccccc2)c1=O)NCc1ccccc1 | inconclusive: 29.1 µM [inhibitor, single point] | –
30 | COc1cccc(CCNC(=O)c2cnc3sc(N4CCCCCC4)nn3c2=O)c1 | – | inactive: -9.79% [at 46.1 µM]
31 | Cc1ccc(S(=O)(=O)N(C)c2c(C)ccc(S(N)(=O)=O)c2C)cc1 | inconclusive: 3.16 µM [inhibitor, partial curve, poor fit] | –
32 | CCOc1ccc(C(=O)CSc2nnc(C3CC3)n2C)cc1 | – | inactive: 3.95%
33 | COc1ccccc1-n1ccnc(SCC(=O)NCc2ccccc2)c1=O | – | inactive: -2.49%
34 | COc1cc(/C=N/NC(=O)Nc2ccccc2)ccc1OCCOc1ccccc1C | active: 2.31 µM | –
35 | CCCCn1cnc2c(SCc3cccc(F)c3)nc(N)nc21 | – | inactive: -17.9% [at 46.1 µM]
36 | COc1cccc(Cn2cnc3c(NS(=O)(=O)c4cccc(Cl)c4Cl)c(C)c(C)cc32)c1 | inconclusive: 20.6 µM [inhibitor, partial curve, poor fit] | –
37 | C/C(CC(=O)Nc1ccc(Cl)c(C(F)(F)F)c1)=N\NC(=O)c1cccc(O)c1 | inconclusive: 18.4 µM [inhibitor, single point] | –
38 | O=C(Nc1cnc2sccn2c1=O)c1ccccc1Cl | – | inactive: -6.2%
39 | Cc1cc(NC(=O)c2cccs2)no1 | inconclusive: 15.8 µM [activator, partial curve, poor fit] | –
40 | C=CC[C@@]1(c2ccccc2)Oc2ccccc2-c2nc3ccccc3nc21 | inconclusive: 0.015 µM [activator, full curve, poor fit] | –
41 | O=C(Nc1cccc(S(=O)(=O)NC2=NCCCCC2)c1)c1ccc(Cl)cc1 | inconclusive: 17.8 µM [inhibitor, single point] | –
42 | CC(=O)N/N=C(\C)C1COc2ccccc2O1 (configuration not stated) | inconclusive: 3.16 µM [inhibitor, single point] | –
43 | CN(c1nc2c(c(=O)n(C)c(=O)n2C)n1CC(=O)c1ccccc1)C1CCCCC1 | – | inactive: -1.75%
44 | Cc1nn(Cc2ccccc2)c(Cl)c1C(=O)OC(C)C(=O)Nc1ccc(F)cc1Cl (configuration not stated) | active: 12.6 µM | –
45 | COc1nc(C)cc(C)c1S(=O)(=O)c1ccccc1C | – | inactive: -12.1% [at 46.1 µM]
46 | COc1ccc(-c2nc3cc(C)ccn3c2NC(=O)c2ccc(F)cc2)cc1 | inconclusive: 15.8 µM [activator, single point] | –
47 | COCCCn1c(N)c(C(=O)Nc2ccccc2)c2nc3ccccc3nc21 | inconclusive: 35.5 µM [inhibitor, single point] | –
48 | Cc1cc(Cl)c2cc3ccccc3cc2n1 | inconclusive: 5.62 µM [inhibitor, single point] | –

Single entries from the list.
CCCCn1cnc2c(SCc3cccc(F)c3)nc(N)nc21 | activity change, negative = inhibition: inactive: -17.9% [at 46.1 µM]
Cc1ccc(S(=O)(=O)N(C)c2c(C)ccc(S(N)(=O)=O)c2C)cc1 | Potency: inconclusive: 3.16 µM [inhibitor, partial curve, poor fit]
C/C(CC(=O)Nc1ccc(Cl)c(C(F)(F)F)c1)=N\NC(=O)c1cccc(O)c1 | Potency: inconclusive: 18.4 µM [inhibitor, single point]

Remaining list, next part.

Row | SMILES | Potency | activity change, negative = inhibition
49 | COc1ccccc1/C=C/C(=O)Nc1cccc(S(=O)(=O)NC2=NCCCCC2)c1 | active: 11.2 µM | –
50 | C=CCOC(=O)C(C(C)=O)[C@@H](NC(=O)OC)c1ccc2ccccc2c1 (some centres not stated) | – | inactive: 23.3% [at 14.2 µM]
51 | CCCCN(CCCC)c1cc(C)nc(-c2ccccc2O)n1 | inconclusive: 25.1 µM [inhibitor, single point] | –
52 | O=C1SC(Cc2ccccc2)C(=O)N1c1ccccc1 (configuration not stated) | inconclusive: 35.5 µM [inhibitor, single point] | –
53 | CCN(CC)CCN(Cc1cc2cc(C)cc(C)c2[nH]c1=O)C(=S)NCc1ccco1 | inconclusive: 35.5 µM [inhibitor, single point] | –
54 | Cc1ccc(S(=O)(=O)c2cn(CC(=O)Nc3ccccc3C)c3cc4c(cc3c2=O)OCO4)cc1 | inconclusive: 11.2 µM [inhibitor, single point] | –
55 | Cc1ccc(C(=O)N2Cc3ccccc3CC2C(=O)O)cc1 (configuration not stated) | – | inactive: 3.73%
56 | O=C(NC1CCS(=O)(=O)C1)C1C2CC3CC(C2)CC1C3 (configuration not stated) | inconclusive: 5.62 µM [inhibitor, single point] | –
57 | COc1ccc(CCNC(=O)CSc2nc(O)c(CC(C)C)c(=O)[nH]2)cc1OC | inconclusive: 10 µM [activator, partial curve, poor fit] | –
58 | Cc1ccc(CNC(=O)CCc2ccc(S(=O)(=O)NCC(C)C)cc2)cc1 | inconclusive: 2.82 µM [inhibitor, full curve] | –
59 | Cc1ccc(C(=O)COC(=O)c2ccc(Br)o2)cc1C | – | inactive: 0.498%
60 | NC(=S)N/N=C/c1coc2ccc(F)cc2c1=O | inconclusive: 1 µM [inhibitor, partial curve, poor fit] | –
61 | O=C(CCCOc1ccc(Cl)cc1Cl)Nc1ccncc1 | – | inactive: -11.6%
62 | Cc1occc1C(=O)NNC(=O)NC12CC3CC(CC(C3)C1)C2 | inconclusive: 35.5 µM [inhibitor, single point] | –
63 | CN(CCC1CCOCC1)C(=O)CC1C(=O)NCCN1Cc1c(F)cccc1Cl (configuration not stated) | – | inactive: -12%
64 | CCCc1nnc(NC(=O)C2CCCO2)s1 (configuration not stated) | inconclusive: 23.1 µM [activator, partial curve, poor fit] | –
65 | NC(=O)NC(=O)CSc1nc2sc(-c3ccccc3)cc2c(=O)n1-c1ccccc1 | – | inactive: 3.99% [at 46.1 µM]
66 | COc1ccccc1NC(=O)c1sc2nc(C)cc(C)c2c1N | – | inactive: 1.72%
67 | COc1ccc(-c2nn(-c3ccccc3)cc2C(=O)N/N=C/c2ccc([N+](=O)[O-])o2)cc1 | – | inactive: 2.18% [at 46.1 µM]
68 | Cc1cc(NC(=O)CSc2nc(-c3cccnc3)ccc2C#N)no1 | inconclusive: 7.08 µM [inhibitor, partial curve, poor fit] | –
69 | CCc1ccc(OCC(=O)NNC(=O)CSc2nnc(-c3ccc(C)cc3)n2C)cc1 | inconclusive: 35.5 µM [activator, single point] | –
70 | CCCCCc1ccc(OCCCC[n+]2ccccc2)c(CCCCC)c1 | inconclusive: 12.6 µM [inhibitor, partial curve, poor fit] | –
71 | CCC(=O)NCc1nc2ccccc2n1Cc1ccccc1F | – | inactive: 2.49%
72 | COc1cccc(C(=O)N2CCN(C(=O)c3cccc4ccccc34)CC2)c1OC | inconclusive: 14.1 µM [activator, single point] | –
